According to the supplement of paper PMC8728848:
This is one part of the list.

Experiments:
Test in all cases: glycan array binding signal (z-score within array); higher = stronger binding
Conditions in all cases: glycan notation: IUPAC condensed, linker removed
Gal(a1-3)Gal(b1-4)GlcNAc = target: Gal(a1-3)Gal(b1-4)GlcNAc
In short: (§1)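 Glycan array data were curated from 3228 arrays in the Consortium for Functional Glycomics database and kept only where the protein sequence was available. Glycan names were converted to IUPAC-condensed notation, and columns mapping to the same glycan were averaged. The binding signal is a within-array Z-score, averaged across arrays of the same protein sequence at different concentrations or buffers and across linkers. Negative Z-scores can be read as non-binding.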

[1] = target: Gal(a1-3)Gal(b1-4)GlcNAc(b1-2)Man
In short: as §1

[2] = target: Gal(a1-3)Gal(b1-4)GlcNAc(b1-2)Man(a1-3)[Gal(a1-3)Gal(b1-4)GlcNAc(b1-2)Man(a1-6)]Man(b1-4)GlcNAc(b1-4)GlcNAc
In short: as §1

[3] = target: Gal(a1-3)Gal(b1-4)GlcNAc(b1-3)GalNAc
In short: as §1

[4] = target: Gal(a1-3)Gal(b1-4)GlcNAc(b1-6)GalNAc
In short: as §1

[5] = target: Gal(a1-3)Gal(b1-4)[Fuc(a1-3)]GlcNAc
In short: as §1

[6] = target: Gal(a1-3)Gal(b1-4)[Fuc(a1-3)]GlcNAc(b1-2)Man(a1-3)[Gal(a1-3)Gal(b1-4)[Fuc(a1-3)]GlcNAc(b1-2)Man(a1-6)]Man(b1-4)GlcNAc(b1-4)GlcNAc
In short: as §1

Gal(a1-3)GalNAc = target: Gal(a1-3)GalNAc
In short: as §1

[7] = target: Gal(a1-3)[Gal(a1-4)]Gal(b1-4)GlcNAc
In short: as §1

[8] = target: Gal(a1-4)Gal(b1-3)GlcNAc(b1-2)Man(a1-3)[Gal(a1-4)Gal(b1-3)GlcNAc(b1-2)Man(a1-6)]Man(b1-4)GlcNAc(b1-4)GlcNAc
In short: as §1

Gal(a1-4)Gal(b1-4)Glc = target: Gal(a1-4)Gal(b1-4)Glc
In short: as §1

Gal(a1-4)Gal(b1-4)GlcNAc = target: Gal(a1-4)Gal(b1-4)GlcNAc
In short: as §1

[9] = target: Gal(a1-4)Gal(b1-4)GlcNAc(b1-2)Man(a1-3)[Gal(a1-4)Gal(b1-4)GlcNAc(b1-2)Man(a1-6)]Man(b1-4)GlcNAc(b1-4)GlcNAc
In short: as §1

[10] = target: Gal(a1-4)Gal(b1-4)GlcNAc(b1-3)Gal(b1-4)Glc
In short: as §1

Gal(a1-4)GlcNAc = target: Gal(a1-4)GlcNAc
In short: as §1

Gal(a1-6)Glc = target: Gal(a1-6)Glc
In short: as §1

Gal(b1-2)Gal = target: Gal(b1-2)Gal
In short: as §1

Gal(b1-3)Gal = target: Gal(b1-3)Gal
In short: as §1

Gal(b1-3)Gal(b1-4)GlcNAc = target: Gal(b1-3)Gal(b1-4)GlcNAc
In short: as §1

[11] = target: Gal(b1-3)Gal(b1-4)GlcNAc(b1-2)Man(a1-3)[Gal(b1-3)Gal(b1-4)GlcNAc(b1-2)Man(a1-6)]Man(b1-4)GlcNAc(b1-4)GlcNAc
In short: as §1

Gal(b1-3)GalNAc = target: Gal(b1-3)GalNAc
In short: as §1

[12] = target: Gal(b1-3)GalNAc(a1-3)[Fuc(a1-2)]Gal(b1-4)Glc
In short: as §1

[13] = target: Gal(b1-3)GalNAc(a1-3)[Fuc(a1-2)]Gal(b1-4)GlcNAc
In short: as §1

Gal(b1-3)GalNAc(b1-3)Gal = target: Gal(b1-3)GalNAc(b1-3)Gal
In short: as §1

[14] = target: Gal(b1-3)GalNAc(b1-3)Gal(a1-4)Gal(b1-4)Glc
In short: as §1

[15] = target: Gal(b1-3)GalNAc(b1-4)Gal(b1-4)Glc
In short: as §1

[16] = target: Gal(b1-3)GalNAc(b1-4)[Neu5Ac(a2-3)]Gal(b1-4)Glc
In short: as §1

Gal(b1-3)GlcNAc = target: Gal(b1-3)GlcNAc
In short: as §1

[17] = target: Gal(b1-3)GlcNAc(a1-3)Gal(b1-4)GlcNAc
In short: as §1

[18] = target: Gal(b1-3)GlcNAc(a1-6)Gal(b1-4)GlcNAc
In short: as §1

Gal(b1-3)GlcNAc(b1-2)Man = target: Gal(b1-3)GlcNAc(b1-2)Man
In short: as §1

[19] = target: Gal(b1-3)GlcNAc(b1-2)Man(a1-3)[Gal(b1-3)GlcNAc(b1-2)Man(a1-6)]Man(b1-4)GlcNAc(b1-4)GlcNAc
In short: as §1

[20] = target: Gal(b1-3)GlcNAc(b1-2)Man(a1-3)[Gal(b1-3)GlcNAc(b1-2)Man(a1-6)]Man(b1-4)GlcNAc(b1-4)[Fuc(a1-6)]GlcNAc
In short: as §1

[21] = target: Gal(b1-3)GlcNAc(b1-2)Man(a1-3)[GlcNAc(b1-4)][Gal(b1-3)GlcNAc(b1-2)Man(a1-6)]Man(b1-4)GlcNAc(b1-4)GlcNAc
In short: as §1

[22] = target: Gal(b1-3)GlcNAc(b1-2)[Gal(b1-3)GlcNAc(b1-6)]Man(a1-6)[Gal(b1-3)GlcNAc(b1-2)Man(a1-3)]Man(b1-4)GlcNAc(b1-4)GlcNAc
In short: as §1

[23] = target: Gal(b1-3)GlcNAc(b1-3)Gal(b1-3)GlcNAc
In short: as §1

[24] = target: Gal(b1-3)GlcNAc(b1-3)Gal(b1-4)Glc
In short: as §1

[25] = target: Gal(b1-3)GlcNAc(b1-3)Gal(b1-4)GlcNAc
In short: as §1

B1: MFG-E8 (Mus musculus), P21956 (protein)
chain: MQVSRVLAALCGMLLCASGLFAASGDFCDSSLCLNGGTCLTGQDNDIYCLCPEGFTGLVCNETERGPCSPNPCYNDAKCLVTLDTQRGDIFTEYICQCPVGYSGIHCETETNYYNLDGEYMFTTAVPNTAVPTPAPTPDLSNNLASRCSTQLGMEGGAIADSQISASSVYMGFMGLQRWGPELARLYRTGIVNAWTASNYDSKPWIQVNLLRKMRVSGVMTQGASRAGRAEYLKTFKVAYSLDGRKFEFIQDESGGDKEFLGNLDNNSLKVNMFNPTLEAQYIKLYPVSCHRGCTLRFELLGCELHGCSEPLGLKNNTIPDSQMSASSSYKTWNLRAFGWYPHLGRLDNQGKINAWTAQSNSAKEWLQVDLGTQRQVTGIITQGARDFGHIQYVASYKVAHSDDGVQWTVYEEQGSSKVFQGNLDNNSHKKNIFEKPFMARYVRVLPVSWHNRITLRLELLGC
glycan array binding signal (z-score) (Gal(a1-3)Gal(b1-4)GlcNAc): -0.544 | glycan array binding signal (z-score) [1]: -0.241 | glycan array binding signal (z-score) [2]: -0.052 | glycan array binding signal (z-score) [3]: 0.348 | glycan array binding signal (z-score) [4]: 0.616 | glycan array binding signal (z-score) [5]: -0.553 | glycan array binding signal (z-score) [6]: 0.518 | glycan array binding signal (z-score) (Gal(a1-3)GalNAc): -0.548 | glycan array binding signal (z-score) [7]: 0.011 | glycan array binding signal (z-score) [8]: -0.165 | glycan array binding signal (z-score) (Gal(a1-4)Gal(b1-4)Glc): 0.037 | glycan array binding signal (z-score) (Gal(a1-4)Gal(b1-4)GlcNAc): -0.571 | glycan array binding signal (z-score) [9]: 0.217 | glycan array binding signal (z-score) [10]: -0.463 | glycan array binding signal (z-score) (Gal(a1-4)GlcNAc): -0.686 | glycan array binding signal (z-score) (Gal(a1-6)Glc): 1.6 | glycan array binding signal (z-score) (Gal(b1-2)Gal): -0.037 | glycan array binding signal (z-score) (Gal(b1-3)Gal): -0.354 | glycan array binding signal (z-score) (Gal(b1-3)Gal(b1-4)GlcNAc): -0.148 | glycan array binding signal (z-score) [11]: -0.381 | glycan array binding signal (z-score) (Gal(b1-3)GalNAc): -0.347 | glycan array binding signal (z-score) [12]: 0.686 | glycan array binding signal (z-score) [13]: -0.266 | glycan array binding signal (z-score) (Gal(b1-3)GalNAc(b1-3)Gal): 0.416 | glycan array binding signal (z-score) [14]: -0.443 | glycan array binding signal (z-score) [15]: -0.553 | glycan array binding signal (z-score) [16]: -0.423 | glycan array binding signal (z-score) (Gal(b1-3)GlcNAc): -0.518 | glycan array binding signal (z-score) [17]: -0.599 | glycan array binding signal (z-score) [18]: -0.106 | glycan array binding signal (z-score) (Gal(b1-3)GlcNAc(b1-2)Man): -0.138 | glycan array binding signal (z-score) [19]: -0.048 | glycan array binding signal (z-score) [20]: -0.351 | glycan array binding signal (z-score) [21]: 0.77 | glycan array binding signal (z-score) [22]: -0.004 | glycan array binding signal (z-score) [23]: 0.102 | glycan array binding signal (z-score) [24]: -0.86 | glycan array binding signal (z-score) [25]: -0.535
